Measurements taken from patent US7368137B2, “Smilagenin and its use” (priority 1999, dated 2008).
For at least one compound, name, drawing or mass did not settle the structure.

Test system: m2 receptors on CHO cells
Assay: Expression of m2 receptors on CHO cells transfected with DNA for the m2 receptor (tritiated QNB binding)
Format: cell-based
Details: molar concentration of compound 10^−6; DMSO control; NS = No significant effect
Description: 1. Chinese hamster ovary (CHO) cells transfected with the a DNA fragment coding for a muscarinic receptor. The cell line used-for the majority of the experiments was a cell line expressing the m2 receptor.
The-effects of various compounds on the expression of m2 receptors on CHO cells transfected with DNA for the m2 receptor were investigated. Receptor numbers were assayed using tritiated QNB binding and subtracting non-specific binding. Compounds were dissolved in DMSO and DMSO was used as a control. Compounds were tested at a range of final concentrations. Compounds were also tested in the presence and absence of tamoxifen to try to distinguish an oestrogen receptor mediated mechanism. The results are summarized in the Table 2 below, where the compound used in the invention appears in bold, and data on other sapogenins is given for comparative purposes: […]

In the case of `C[C@@H]1CC[C@@]2(OC1)O[C@H]1C[C@H]3[C@@H]4C[C@@H](O)[C@@]5(O)C[C@@H](O)CC[C@]5(C)[C@H]4CC[C@]3(C)[C@H]1[C@@H]2C` [Anzurogenin D, reference compound], the “Effect on receptor expression - given as % increase compared to control (negative values in brackets)” value is reported as “(26) %”.
